US6262053A, “Melamine derivatives as potent anti-cancer agents” (Parker Hughes Institute, priority 1999, dated 2001)
At least one compound was matched to its structure with a doubt left.

Experiments:
NALM-6 leukemia cells = assay: MTT cytotoxicity assay, NALM-6 leukemia cells; assay type: cell-based, human
Protocol: (§1) Cytotoxicity of various compounds against tumor cells was performed using the MTT (3-[4,5-dimethylthiazol-2-yl]-2,5-diphenyl tetrazolium bromide) assay (Boehringer Mannheim Corp., Indianapolis, Ind.). Unless otherwise specified, all cell lines were obtained from the American Type Culture Collection (ATCC). Briefly, exponentially growing cells were seeded into a 96-well plate at a density of 2.5×10^4 cells/well and incubated for 36 hours at 37° C. prior to drug exposure. On the day of treatment, culture medium was carefully aspirated from the wells and replaced with fresh medium containing WHI-P239 at concentrations ranging from 0.1 to 250 μM. Triplicate wells were used for each treatment.
(§2) Human leukemic cell lines (NALM-6, MOLT-3), human breast tumor cells (BT20), prostate cancer cells (PC3), and glioblastoma cells (U373) were obtained from the American Type Culture Collection and maintained as a continuous cell line in Dulbecco's modified Eagles's medium supplemented with 10% fetal bovine serum and antibiotics.
(§3) The cells were incubated with the various compounds for 24-36 hours at 37° C. in a humidified 5% CO2 atmosphere. […] The absorbence of each well was measured in a microplate reader (Labsystems) at 540 nm and a reference wavelength of 690 in. […] The percent survival was calculated using the formula shown below. […]

U373 glioblastoma cells = assay: MTT cytotoxicity assay, U373 glioblastoma (brain tumor) cells; assay type: cell-based
Protocol: as §1, §2, §3

[1] = system: BT-20 breast cancer cells; assay: MTT cytotoxicity assay, BT-20 breast cancer cells; assay type: cell-based, human
Protocol: as §1, §2, §3

Structure (SMILES)	antileukemic activity (in words) (NALM-6 leukemia cells)	anti-glioblastoma activity (in words) (U373 glioblastoma cells)	anti-breast cancer activity (in words) [1]
Oc1ccc(Nc2nc(Nc3ccc(O)cc3)nc(Nc3ccc(O)cc3)n2)cc1 [WHI-P199, 2,4,6-Tri(4'-hydroxylphenyl)-amino-1,3,5-triazine]	no antileukemic activity		
Oc1c(Br)cc(Nc2nc(Nc3cc(Br)c(O)c(Br)c3)nc(Nc3cc(Br)c(O)c(Br)c3)n2)cc1Br [WHI-P200, 2,4,6-Tri(3',5'-dibromo-4'-hydroxylphenyl)-amino-1,3,5-triazine]		no cytotoxic activity against brain tumor cells	
Brc1cccc(Nc2nc(Nc3cccc(Br)c3)nc(Nc3cccc(Br)c3)n2)c1 [WHI-P206, 2,4,6-Tri(3'-bromophenyl)-amino-1,3,5-triazine]	no antileukemic activity	no cytotoxic activity against brain tumor cells	no cytotoxic activity against breast cancer cells
